Laboratory results from PubChem BioAssay AID248 (DTP/NCI, 2004).
The list is a part of this screen's results and no random one: it gathers tests that were run many times, whatever their T/C, doses with no T/C, and many T/C values between a quarter and a half above the control. Further doses and runs are listed elsewhere. T/C: endpoint of the treated group in % of that of the vehicle group. Some doses have a count of surviving animals in place of a T/C: the source holds a T/C of zero for them, seemingly a mark for toxic or unscored doses. Some doses without a T/C left all or most animals alive at the check, yet need not have been tolerated: the source hardly ever lists a survival T/C far under the control, and the zero likely stands for such cases as well. Survivors were counted at the toxicity check, usually on the fifth day, unless a day is given; later deaths do not show. Schedule codes are those of the source, taken here to give the interval after Q, in days (D) or hours (H), and the number of doses after X. For survival time, the PubChem record calls one and a half times the control and up active, and a quarter to a half above the control has no call in these data; cut-offs in other NCI protocols can differ. Some schedules carry Z or #; the key to these is not given. Some doses were run more than once; their values stand side by side, smallest first. Some T/C values are followed by the survivors on the day toxicity was checked, most often the fifth; where none is given, no animal had died by that day.

Tested on: L1210 leukemia ip in BDF1 mice, survival T/C
Experiment: NCI In Vivo Anticancer Drug Screen. Data for tumor model L1210 Leukemia (intraperitoneal) in B6D2F1 (BDF1) mice
Settings: T/C endpoint: mean survival time, higher T/C = longer survival; for T/C: schedule: Q01DX Z (ip)
[1] = dose: 50.0 mg/kg/injection, schedule: Q01DX009 (ip), vehicle: saline with Tween-80

O=C1C(Cl)=C(N2CC2)C(=O)c2ccccc21
survivor count (dose: 10.0 mg/kg/injection, schedule: Q01DX009 (ip), vehicle: Klucel (hydroxypropylcellulose) (HPC)): 4 of 6

CCCCC(C(=O)O)(c1ccccc1)c1ccccc1
survivor count (dose: 300.0 mg/kg/injection, schedule: Q04DX002 (ip), vehicle: gum acacia): 0 of 3

Nc1nc(N)nc(CCCCCc2nc(N)nc(N)n2)n1
survivor count (dose: 200.0 mg/kg/injection, schedule: Q01DX001 (ip), vehicle: carboxymethylcellulose (CMC)): 1 of 4

O=C(CCl)N=c1cc(-c2ccc(Cl)cc2)ss1
survivor count (dose: 200.0 mg/kg/injection, schedule: Q04DX002 (ip), vehicle: saline): 0 of 3
survivor count (dose: 400.0 mg/kg/injection, schedule: Q04DX002 (ip), vehicle: saline): 0 of 3

CN(C)C=Nc1ccc(Cl)c2ccccc12
survivor count (dose: 400.0 mg/kg/injection, schedule: Q04DX003 (ip), vehicle: Klucel (hydroxypropylcellulose) (HPC)): 5 of 6

CCC(=O)OCC1OC(n2cnc3c(=S)nc(N)[nH]c32)C(OC(=O)CC)C1OC(=O)CC (configuration not stated)
T/C (dose: 2.0 mg/kg/injection, vehicle: carboxymethylcellulose (CMC)): 126 and 133 % of control
T/C (dose: 5.0 mg/kg/injection, vehicle: carboxymethylcellulose (CMC)): 137, 140, 146 % of control
T/C (dose: 8.0 mg/kg/injection, vehicle: carboxymethylcellulose (CMC)): 128 and 136 % of control
T/C (dose: 18.0 mg/kg/injection, vehicle: carboxymethylcellulose (CMC)): 146 % of control [5 of 6 alive]

O=C(O)CSc1cc(-c2ccc(Cl)cc2)s[s+]1
survivor count (dose: 25.0 mg/kg/injection, schedule: Q01DX009 (ip), vehicle: water): 5 of 6
survivor count (dose: 100.0 mg/kg/injection, schedule: Q04DX003 (ip), vehicle: water): 0 of 6
survivor count (dose: 200.0 mg/kg/injection, schedule: Q04DX003 (ip), vehicle: water): 0 of 6
survivor count (dose: 400.0 mg/kg/injection, schedule: Q04DX003 (ip), vehicle: water): 0 of 6

CCCCCCCCCCCc1nc(N)nc(NCCc2ccccc2)n1
survivor count (dose: 50.0 mg/kg/injection, schedule: Q01DX009 (ip), vehicle: Klucel (hydroxypropylcellulose) (HPC)): 2 of 3

c1ccc(P(=N[P+](c2ccccc2)(c2ccccc2)c2ccccc2)(c2ccccc2)c2ccccc2)cc1
survivor count [1]: 0 of 3
survivor count (dose: 100.0 mg/kg/injection, schedule: Q01DX005 (ip), vehicle: saline with Tween-80): 0 of 3
survivor count (dose: 100.0 mg/kg/injection, schedule: Q01DX009 (ip), vehicle: saline with Tween-80): 0 of 3
survivor count (dose: 200.0 mg/kg/injection, schedule: Q01DX005 (ip), vehicle: saline with Tween-80): 0 of 3
survivor count (dose: 200.0 mg/kg/injection, schedule: Q01DX009 (ip), vehicle: saline with Tween-80): 0 of 3
survivor count (dose: 400.0 mg/kg/injection, schedule: Q01DX005 (ip), vehicle: saline with Tween-80): 0 of 3

O=C(Nc1cccc2ccccc12)OCCCBr
survivor count [1]: 1 of 3
